What was measured:
[1] = general procedure: Fmoc solid-phase peptide synthesis; 2-chlorotrityl chloride (2-CTC) resin; HBTU/DIPEA; conditions: whole synthesis, 254 nm, scale of the general procedure 0.1 mmol
[2] = general procedure: Fmoc solid-phase peptide synthesis; 2-CTC resin; HBTU/DIPEA; conditions: whole synthesis, scale 0.1 mmol

Question: Which results are given for “DOTA-Ahx-Axh-Glu-Trp-Pro-Arg-Pro-Gln-Ile-Pro-Pro-OH”?
Answer: final HPLC purity [1]: 99%; isolated yield [2]: 19.2%
